Test results published in patent US20240197655A1 (REPUBLIC OF KOREA(MASAN NATIONAL TUBERCULOSIS HOSPITAL), priority 2021, published 2024).
Structures can show the parent of a compound that is named as a salt.

Legend:
[1] = system: M. intracellulare (ATCC 13950); test: microbe, parasite or virus in culture; settings: Mycobacterium intracellulare, ATCC13950, read-out: IC50 against M. intracellulare
[2] = system: M. avium (ATCC 25291); test: microbe, parasite or virus in culture; settings: Mycobacterium avium, ATCC25291, read-out: IC50 against M. avium, 7H9 broth, FIG. 8
[3] = system: M. abscessus in biofilm culture; test: Biofilm assay (Calgary Biofilm Device, MBEC Assay); type: cell-based, Mycobacterium abscessus; settings: Mycobacteroides abscessus, FIG. 4
Procedure: The first biofilm assay system was the Calgary Biofilm Device used by Bardouniotis et al. to evaluate the bactericidal activity or minimum biofilm eradication concentration (MBEC) of a biocidal active substance against Mycobacterium phlei. In the present invention, MBEC Assay® (Innovotech, Edmonton, Canada) for MBEC measurement was used. Biofilm formation was performed as follows. […] Then, the 96-well microliter plate was covered with a 96-peg lid and incubated for 4 days. After washing, the bacteria remaining on the biofilms were removed from the wells by ultrasonication in the medium. Finally, after incubation, the adherent bacteria remaining on the biofilms with or without antibiotics were quantified with resazurin.

[4] = system: M. avium (ATCC 25291); settings: 7H9 broth, FIG. 8
[5] = system: M. abscessus (ATCC 19997) under anaerobic conditions; test: Resazurin dose-response under anaerobic non-replicating culture; type: cell-based, Mycobacterium abscessus; settings: Mycobacteroides abscessus, FIG. 4
Procedure: In order to determine the antibiotic ability against M. abscessus (ATCC 19997) under anaerobic conditions, a bacterial culture (5×10^6 bacteria/mL) was inoculated into 5 mL of 7H9 broth (BD, 271310) supplemented with 10% OADC. The bacterial culture was placed in an anaerobic jar (BD BBLIM GasPAK™ Jar; Franklin Lakes, NJ, USA). Here, a BD BBLIM GasPAK™ anaerobic indicator (methylene blue for monitoring oxygen depletion) was used. The bacteria were cultured in cation-adjusted Mueller-Hinton broth (MH; Sigma-Aldrich, 90922) for drug susceptibility testing.
Experiments were performed in triplicates.
In the present invention, this step confirmed the activity of CC on the non-replicating culture induced by the depletion of oxygen. […] A comparison was made between the growth rates under aerobic, anaerobic and restored aerobic conditions in a same culture medium.

[6] = system: M. abscessus (lux) in THP-1 cells; test: microbe, parasite or virus in culture; type: cell-based, Mycobacterium abscessus; settings: Mycobacteroides abscessus, THP-1, read-out: IC50 growth of intracellular M. abscessus (lux)
Procedure: (§1) THP-1 cells were treated with phorbol 12-myristate 13-acetate (PMA; Sigma-Aldrich, USA) at a final concentration of 50 nM for 40 hours. Infection with M. abscessus containing pTEC15 green fluorescence or luciferase was performed at 37° C. in the presence of 5% CO2 at a multiplicity of […] (MOI) of 2:1 for 3 hours. After extensive washing with PBS, the cells were incubated in a culture medium containing […] of gentamicin for 30 minutes and washed again with PBS. […] Macrophages were stained with SYTO 60 (Invitrogen, USA) dye at a final concentration of 5 μM at 37° C. in a 5% CO2 atmosphere for 30 minutes. On the day 4, luminescence was measured with a Synergy H1 microplate reader (Bio-Tek, USA). The fluorescence microscopic images of living cells were captured with a Lionheart™ FX automated microscope (BIO-Tek, USA). The Gen5™ 3.05 software object feature was available for identification of the cells in the imaging field.
The use of a double read assay results in dose-response curves for both inhibition for M. abscessus and cytotoxicity to THP-1 cells as determined in a same experiment. […] The cytotoxicity was determined using a SYTO 60 probe.

[7] = system: M. abscessus-GFP in THP-1 cells; test: microbe, parasite or virus in culture; settings: Mycobacteroides abscessus, THP-1, 72 h, read-out: IC50 growth of M. abscessus-GFP in THP-1 cells
Procedure: as §1

[8] = system: M. abscessus (ATCC 19997); test: Resazurin (REMA) broth microdilution dose-response, aerobic culture; type: cell-based, Mycobacterium abscessus; settings: Mycobacteroides abscessus, ATCC19997, 7H9 broth, FIG. 1(A); read-out: IC50 against M. abscessus
[9] = system: M. abscessus-LuxG13; test: microbe, parasite or virus in culture; settings: Mycobacteroides abscessus, read-out: IC50 in M. abscessus-LuxG13

## CCN(CC)CCOc1ccc(C(=C(Cl)c2ccccc2)c2ccccc2)cc1 [CC, clomiphene citrate]
[1]
  IC50: 14.1 µg/mL
[2]
  IC50: 5.08 µg/mL
[3]
  IC50: 15.9 µg/mL
[4]
  IC50 against M. avium: 5.07 µg/mL
[5]; ATCC19997, anaerobic conditions
  IC50: 3.16 µg/mL
[5]; ATCC19997, anaerobic culture conditions
  IC50: 0.00316 µg/mL
[6]
  IC50: 2.29 µg/mL
[7]
  IC50: 13.2 µg/mL
[8]
  IC50: 17.1 µg/mL
[9]
  IC50: 5.36 µg/mL
